# Test results as given in PubChem BioAssay AID1347426 (Functional Genomics Laboratory (NCATS/FGL), 2020).
# Screen size: about 31,000 sequences; about 1,400 (4.5%) were called active.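 The calls were made as follows: active = median seed-adjusted z-score above 1 or below -1; inactive = the rest.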 The list shows a part of the results.
# Test: Novel Modifiers of Survival Motor Neuron (SMN) Protein: Gene Identification via Genome-wide siRNA Screen;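 also: luminescence tracks full-length SMN protein made from the SMN2 reporter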
# Conditions: HEK293T SMN2-luciferase reporter, siRNA knockdown, 72 h; actives lie on both sides
# In short: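 HEK293T cells stably expressing an SMN2 splicing/cDNA-luciferase reporter were reverse-transfected with a druggable-genome siRNA library and read by luminescence at 72 hours; hits defined by MAD score above 1.0 or below -1.0.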
row,Sequence,median seed-adjusted z-score
1,GAGGUAUCAUUAUCAGUUATT against CYP4F3,inactive: -0.336
2,CCGUAGUAUUUAUAGUUAATT against GSC,inactive: 0.17
3,CCUUUACUUUCUAUAGAAATT against ZNF573,inactive: -0.169
4,GGUUCUUUCUAAUAUGGAATT against IMPA1,inactive: -0.295
5,GAGCUAUUUACAAACCGAATT against CES1,inactive: -0.536
6,GAUGAUAUGUCGUAUCGAATT against LMO7,inactive: 0.417
7,GAAUGAUGAUGCAUGCCUUTT against MS4A10,inactive: -0.24
8,CUGUCAAAGUUGCUCGAAATT against MSH6,inactive: -0.182
9,GACUCUGAGUAUAAAGUGATT against BARHL1,inactive: 0.397
10,GCACGUGAGAGGGAUGAAATT against SNW1,inactive: 0.148
11,ACAUGAUCUUGGACCUGGATT against CSNK2B,active: -1.62
12,CUGAAGAUGUUAGACAAGATT against CAMKK1,inactive: 0
13,CGCUCAGUGUCCAACAUUATT against CYP2F1,inactive: 0
14,AGACCGAUCCUGACCCUUUTT against ZNF395,inactive: -0.0986
15,CUGCCGAACUUUUAAACAATT against MCHR2,inactive: -0.658
16,GGGAUUAUUUUACGGCAGATT against ABCB5,inactive: 0.495
17,CAUAGAUCACUAUCGAAAATT against RASA1,inactive: -0.398
18,AGCCCUAAACUAUUCCAGATT against MRGPRD,inactive: -0.484
19,GGAAUGAGUACGUUACCAATT against MYH3,inactive: -0.113
20,CGGUGAACGGGUUGGAGAATT against PAX9,active: -1.16
21,CCUAUUCCCUGGAUUCACATT against CARD6,inactive: 0
22,AAGCCGACUUGAAUAUAAUTT against MYBBP1A,inactive: 0.572
23,ACUUUGAUGAUUAUAUGAATT against FABP4,inactive: 0.227
24,GAAUGACCGUGUGAGGAAATT against DCLK3,inactive: -0.0139
25,CAAUGUCCAGGGUAUCAUUTT against HAO2,inactive: 0.039
26,CGAGCCCACUUGUCAGAAATT against RBM10,inactive: -0.0114
27,GAAAAGCGGUUUCAGAUCATT against HLTF,inactive: -0.00902
28,CUGAUGAGGCGGAUACUAATT against TEP1,inactive: -0.495
29,GCUCAUAUGUUAGAUUUGATT against CARS2,inactive: 0
30,GCAAUGAUCAAUUAUCCCATT against TSC22D2,inactive: 0

# Not a retest: entries from further up.
row,Sequence,median seed-adjusted z-score
18,AGCCCUAAACUAUUCCAGATT against MRGPRD,inactive: -0.484
19,GGAAUGAGUACGUUACCAATT against MYH3,inactive: -0.113
